Data on 10 molecules can be found in patent publication US20230056252A1.

Chains of the proteins cited; added tags and fusions are not shown. Lines headed by an entry give the natural chain unless they say otherwise; changes in a name come on top.
UniProt P07766: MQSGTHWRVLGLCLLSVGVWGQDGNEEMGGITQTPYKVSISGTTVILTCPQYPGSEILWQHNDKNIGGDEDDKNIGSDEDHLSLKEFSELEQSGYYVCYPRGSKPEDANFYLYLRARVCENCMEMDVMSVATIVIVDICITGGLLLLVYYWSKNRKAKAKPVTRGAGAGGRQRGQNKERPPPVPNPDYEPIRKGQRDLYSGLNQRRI

Results are given in words; binding and its absence hold for the method and conditions named. Some results given as binding are weak or reduced against the parent protein; the word gives no strength.

B1: huSP34.2.1 Fab-HF (Fab, V domains shown)
VH: EVQLVESGGGLVQPGGSLRLSCAASGFTFSTYAMNWVRQAPGKGLEWVGRIRSKYNNYATYYAASVKGRFTISRDDSKNSLYLQMNSLKTEDTAMYYCVRHGNFGNSYVSWFAVWGQGTLVTVSS
VL: QAVVTQEPSLTVSPGGTVTLTCRSSTGAVTTSNYANWVQQKPGQAPRGLIGGTNKRAPWTPARFSGSLIGDKAALTLSGAQPEDEAEYYCALWYSNLWVFGGGTKLTVL
B2: huSP34.2.6 Fab-HF (Fab, V domains shown)
VH: EVQLVESGGGLVQPGGSLRLSCAASGFTFSTYAMNWVRQAPGKGLEWVGRIRSKYNNYATYYAASVKGRFTISRDDSKNSLYLQMNSLKTEDTAMYYCVRHGNFGNSYVSWFAVWGQGTLVTVSS
VL: QAVVTQPPSLTVSPGGTVTLTCGSSTGAVTTGHYANWVQQKPGQAPRGLIGGTSNRAPGVPARFSGSLSGGKAALTISGAQPEDEAEYYCALWYSARWVFGGGTKLTVL
B3: huSP34.2.2 Fab-HF (Fab, V domains shown)
VH: EVQLVESGGGLVQPGGSLRLSCAASGFTFSTYAMNWVRQAPGKGLEWVGRIRSKYNNYATYYAASVKGRFTISRDDSKNSLYLQMNSLKTEDTAMYYCVRHGNFGNSYVSWFAVWGQGTLVTVSS
VL: QAVVTQEPSLTVSPGGTVTLTCGSSTGAVTTSNYANWVQQKPGQAPRGLIGGTSNRAPWTPARFSGSLLGGKAALTLSGAQPEDEAEYYCALWYSNLWVFGGGTKLTVL
B4: huSP34.3.1 Fab-HF (Fab, V domains shown)
VH: EVQLVESGGGLVQPGGSLRLSCAASGFTFNTYAMNWVRQAPGKGLEWVGRIRSKYNNYATYYADSVKGRFTISRDDSKNSLYLQMNSLRTEDTAVYYCVRHGNFGHSYVSWFAYWGQGTLVTVSS
VL: QAVVTQEPSLTVSPGGTVTLTCRSSTGAVTTSNYANWVQQKPGQAPRGLIGGTNKRAPWTPARFSGSLIGDKAALTLSGAQPEDEAEYYCALWYSNLWVFGGGTKLTVL
B5: huSP34.3.4 Fab-HF (Fab, V domains shown)
VH: EVQLVESGGGLVQPGGSLRLSCAASGFTFNTYAMNWVRQAPGKGLEWVGRIRSKYNNYATYYADSVKGRFTISRDDSKNSLYLQMNSLRTEDTAVYYCVRHGNFGHSYVSWFAYWGQGTLVTVSS
VL: QAVVTQEPSLTVSPGGTVTLTCGSSTGAVTTSHYANWVQQKPGQAPRGLIGGTSKRAPWTPARFSGSLLGGKAALTLSGAQPEDEAEYYCALWYSALWVFGGGTKLTVL
B6: huSP34.3.5 Fab-HF (Fab, V domains shown)
VH: EVQLVESGGGLVQPGGSLRLSCAASGFTFNTYAMNWVRQAPGKGLEWVGRIRSKYNNYATYYADSVKGRFTISRDDSKNSLYLQMNSLRTEDTAVYYCVRHGNFGHSYVSWFAYWGQGTLVTVSS
VL: QAVVTQEPSLTVSPGGTVTLTCGSSTGAVTTGHYANWVQQKPGQAPRGLIGGTSNRAPWTPARFSGSLLGGKAALTLSGAQPEDEAEYYCALWYSARWVFGGGTKLTVL
B7: huSP34.4.6 Fab-HF (Fab, V domains shown)
VH: EVQLVESGGGLVQPGGSLRLSCAASGFTFSTYAMNWVRQAPGKGLEWVGRIRSKYNNYATYYAASVKGRFTISRDDSKNSLYLQMNSLRTEDTAVYYCVRHGNFGHSYVSWFAVWGQGTLVTVSS
VL: QAVVTQPPSLTVSPGGTVTLTCGSSTGAVTTGHYANWVQQKPGQAPRGLIGGTSNRAPGVPARFSGSLSGGKAALTISGAQPEDEAEYYCALWYSARWVFGGGTKLTVL
B8: huSP34.3.6 Fab-HF (Fab, V domains shown)
VH: EVQLVESGGGLVQPGGSLRLSCAASGFTFNTYAMNWVRQAPGKGLEWVGRIRSKYNNYATYYADSVKGRFTISRDDSKNSLYLQMNSLRTEDTAVYYCVRHGNFGHSYVSWFAYWGQGTLVTVSS
VL: QAVVTQPPSLTVSPGGTVTLTCGSSTGAVTTGHYANWVQQKPGQAPRGLIGGTSNRAPGVPARFSGSLSGGKAALTISGAQPEDEAEYYCALWYSARWVFGGGTKLTVL
B9: huSP34.4.1 Fab-HF (Fab, V domains shown)
VH: EVQLVESGGGLVQPGGSLRLSCAASGFTFSTYAMNWVRQAPGKGLEWVGRIRSKYNNYATYYAASVKGRFTISRDDSKNSLYLQMNSLRTEDTAVYYCVRHGNFGHSYVSWFAVWGQGTLVTVSS
VL: QAVVTQEPSLTVSPGGTVTLTCRSSTGAVTTSNYANWVQQKPGQAPRGLIGGTNKRAPWTPARFSGSLIGDKAALTLSGAQPEDEAEYYCALWYSNLWVFGGGTKLTVL
B10: huSP34.3.2 Fab-HF (Fab, V domains shown)
VH: EVQLVESGGGLVQPGGSLRLSCAASGFTFNTYAMNWVRQAPGKGLEWVGRIRSKYNNYATYYADSVKGRFTISRDDSKNSLYLQMNSLRTEDTAVYYCVRHGNFGHSYVSWFAYWGQGTLVTVSS
VL: QAVVTQEPSLTVSPGGTVTLTCGSSTGAVTTSNYANWVQQKPGQAPRGLIGGTSNRAPWTPARFSGSLLGGKAALTLSGAQPEDEAEYYCALWYSNLWVFGGGTKLTVL

The assay has as its target human CD3 on the surface of primary human T cells (CD4+ and CD8+ T cells, PBMCs) (human) (UniProt P07766). Briefly: flow cytometry competition with murine SP34-AF488 on primary human T cells. In general terms: A flow cytometer gives signals particle by particle.
For the molecule B1, the binding result is “binds”.

As to B2, the binding result is “binds”.

In the case of B3, the binding result is given as “binds”.

Take B4: the binding entry was “binds”.

As to B5, the binding result is “binds”.

As for B6, the binding result is recorded as “binds”.

As to B7, the binding entry is on record as “binds”.

B8: the binding result is “binds”.

Consider B9, for which the binding entry is “binds”.

As for B10, the binding entry was “binds”.
